The target in this assay is HERG with the c-myc immunoepitope engineered onto the C-terminus (UniProt Q12809). Briefly: co-IP; HERG-myc precipitated with polyclonal anti-myc antibody and protein-G-agarose from cleared lysates (NDET buffer: 1% NP-40, 0.4% deoxycholate, 5 mM EDTA, 25 mM Tris-HCl pH 7.5, 150 mM NaCl) of HERG-HEK cells transfected with FLAG-KCNE plasmids; room temperature; KCNE detected by anti-FLAG immunoblot; cells untreated or treated with Brefeldin A (3 ng/ml, 36 hours). On the technique in general: Immunoblotting shows a protein as a band on a membrane.

Binding data for 2 molecules are collected here from publication PMC1978535.

Results are given in words; binding and its absence hold for the method and conditions named. In cells and extracts the contact can be indirect. Some entries that bind do so weakly or less than the wild type. Sequences can lack the tags named with a protein.

On to “N-terminal FLAG-tagged wild type KCNE1 (from UniProt P15382 1-129)”, for which the binding result is on record as “binds”.

B1: N-terminal FLAG-tagged wild type KCNE2 (protein, UniProt Q9Y6J6 1-123)
chain: MSTLSNFTQTLEDVFRRIFITYMDNWRQNTTAEQEALQAKVDAENFYYVILYLMVMIGMFSFIIVAILVSTVKSKRREHSNDPYHQYIVEDWQEKYKSQILNLEESKATIHENIGAAGFKMSP
For B1, the binding entry is given as “binds”.
